Read-outs that look alike come from different tables or passages of the source. No constants are given. Whether binding was seen depends on the method and setting. Binding seen in cells or lysates may run through a third protein. Some binding calls cover weakened binding; strength is not graded here. For some of these results: Tags and fused reporters may be left off the sequences shown.
How the values were obtained:
Assay in all cases: co-IP
[1] = molecular target: ataxia-telangiectasia mutated (ATM) protein kinase (human (endogenous in H460)) (UniProt Q13315)
[2] = molecular target: Protein Reprimo (RPRM), HA-tagged full-length (human) (UniProt Q9NS64)
[3] = molecular target: ataxia-telangiectasia mutated (ATM) protein kinase (human (endogenous in H460)) (UniProt Q13315); remark: listed apart in the source

The chains behind the UniProt entries cited, without tags or fusion partners. Where a name states a change or a piece, a line headed by the entry shows the natural chain unless it says otherwise.
UniProt Q13315, whole entry: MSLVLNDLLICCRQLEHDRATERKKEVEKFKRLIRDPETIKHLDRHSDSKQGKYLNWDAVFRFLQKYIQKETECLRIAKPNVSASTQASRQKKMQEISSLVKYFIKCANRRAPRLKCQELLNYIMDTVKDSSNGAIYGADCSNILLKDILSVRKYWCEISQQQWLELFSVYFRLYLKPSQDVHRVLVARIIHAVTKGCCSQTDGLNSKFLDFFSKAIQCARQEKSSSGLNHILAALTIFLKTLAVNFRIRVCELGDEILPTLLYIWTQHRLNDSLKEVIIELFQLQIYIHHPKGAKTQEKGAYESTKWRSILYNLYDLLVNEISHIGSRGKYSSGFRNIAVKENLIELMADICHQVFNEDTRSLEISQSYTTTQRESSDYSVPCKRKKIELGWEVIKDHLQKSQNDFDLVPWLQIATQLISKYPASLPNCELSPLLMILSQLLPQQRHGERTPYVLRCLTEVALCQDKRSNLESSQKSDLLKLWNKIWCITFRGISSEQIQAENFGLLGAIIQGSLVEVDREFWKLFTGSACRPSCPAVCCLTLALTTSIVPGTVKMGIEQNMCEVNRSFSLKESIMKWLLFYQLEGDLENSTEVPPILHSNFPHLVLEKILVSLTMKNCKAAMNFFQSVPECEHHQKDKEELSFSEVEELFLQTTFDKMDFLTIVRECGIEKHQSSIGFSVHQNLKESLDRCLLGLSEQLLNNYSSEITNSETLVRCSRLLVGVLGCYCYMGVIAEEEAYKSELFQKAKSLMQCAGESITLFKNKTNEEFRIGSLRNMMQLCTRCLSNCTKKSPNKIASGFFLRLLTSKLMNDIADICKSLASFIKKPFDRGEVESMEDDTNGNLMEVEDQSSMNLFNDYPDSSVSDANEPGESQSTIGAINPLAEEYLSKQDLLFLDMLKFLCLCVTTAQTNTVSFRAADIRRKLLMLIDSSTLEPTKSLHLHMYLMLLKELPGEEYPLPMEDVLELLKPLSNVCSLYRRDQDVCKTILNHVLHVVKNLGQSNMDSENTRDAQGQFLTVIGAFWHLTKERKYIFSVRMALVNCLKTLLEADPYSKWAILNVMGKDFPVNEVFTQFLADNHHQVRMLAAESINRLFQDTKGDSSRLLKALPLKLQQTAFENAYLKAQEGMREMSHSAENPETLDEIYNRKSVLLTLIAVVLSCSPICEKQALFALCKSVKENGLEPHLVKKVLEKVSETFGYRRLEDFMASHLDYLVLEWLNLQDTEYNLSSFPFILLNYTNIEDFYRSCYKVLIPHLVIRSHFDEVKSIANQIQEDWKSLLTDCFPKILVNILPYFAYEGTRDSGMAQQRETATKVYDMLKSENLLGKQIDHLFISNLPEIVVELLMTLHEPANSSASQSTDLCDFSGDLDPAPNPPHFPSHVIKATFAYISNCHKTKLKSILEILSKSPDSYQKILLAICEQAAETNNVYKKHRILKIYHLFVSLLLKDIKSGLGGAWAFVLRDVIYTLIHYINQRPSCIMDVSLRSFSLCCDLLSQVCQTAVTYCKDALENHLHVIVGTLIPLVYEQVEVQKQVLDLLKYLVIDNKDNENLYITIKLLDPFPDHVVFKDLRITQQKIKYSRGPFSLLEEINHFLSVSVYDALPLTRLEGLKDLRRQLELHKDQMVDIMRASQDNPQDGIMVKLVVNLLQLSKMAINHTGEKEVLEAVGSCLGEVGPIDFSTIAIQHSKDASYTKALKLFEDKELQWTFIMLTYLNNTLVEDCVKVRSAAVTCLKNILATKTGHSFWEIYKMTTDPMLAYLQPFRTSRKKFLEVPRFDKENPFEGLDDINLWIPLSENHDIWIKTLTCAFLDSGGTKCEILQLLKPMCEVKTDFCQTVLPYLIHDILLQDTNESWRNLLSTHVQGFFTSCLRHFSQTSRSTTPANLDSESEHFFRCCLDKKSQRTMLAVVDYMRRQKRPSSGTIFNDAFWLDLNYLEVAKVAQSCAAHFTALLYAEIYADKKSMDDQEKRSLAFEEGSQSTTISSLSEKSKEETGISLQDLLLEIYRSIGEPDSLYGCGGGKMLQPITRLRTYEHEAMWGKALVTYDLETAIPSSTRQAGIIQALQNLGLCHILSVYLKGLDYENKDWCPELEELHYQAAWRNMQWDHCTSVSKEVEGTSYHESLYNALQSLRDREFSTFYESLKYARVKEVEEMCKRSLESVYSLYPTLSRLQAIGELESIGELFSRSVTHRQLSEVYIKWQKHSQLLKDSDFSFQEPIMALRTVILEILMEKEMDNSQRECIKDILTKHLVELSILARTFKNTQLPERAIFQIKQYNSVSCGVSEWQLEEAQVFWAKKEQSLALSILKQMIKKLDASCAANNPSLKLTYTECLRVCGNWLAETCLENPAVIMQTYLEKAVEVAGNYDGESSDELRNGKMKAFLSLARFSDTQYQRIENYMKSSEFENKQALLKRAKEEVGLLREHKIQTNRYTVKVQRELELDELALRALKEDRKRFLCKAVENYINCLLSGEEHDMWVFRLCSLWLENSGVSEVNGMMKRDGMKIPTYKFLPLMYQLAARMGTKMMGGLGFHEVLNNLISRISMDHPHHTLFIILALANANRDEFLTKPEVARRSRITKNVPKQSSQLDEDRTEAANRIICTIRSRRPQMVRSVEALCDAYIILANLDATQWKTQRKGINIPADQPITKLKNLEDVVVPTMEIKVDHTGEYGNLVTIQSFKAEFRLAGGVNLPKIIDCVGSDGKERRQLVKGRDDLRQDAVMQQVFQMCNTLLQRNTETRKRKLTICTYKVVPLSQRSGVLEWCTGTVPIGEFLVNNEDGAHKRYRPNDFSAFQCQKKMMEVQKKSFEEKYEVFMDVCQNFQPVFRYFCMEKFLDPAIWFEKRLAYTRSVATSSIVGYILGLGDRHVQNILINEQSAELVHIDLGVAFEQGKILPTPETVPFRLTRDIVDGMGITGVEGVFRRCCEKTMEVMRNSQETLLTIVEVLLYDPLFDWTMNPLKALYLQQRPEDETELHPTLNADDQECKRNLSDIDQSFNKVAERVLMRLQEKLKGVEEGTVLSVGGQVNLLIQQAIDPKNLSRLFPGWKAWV
UniProt Q00534, whole entry: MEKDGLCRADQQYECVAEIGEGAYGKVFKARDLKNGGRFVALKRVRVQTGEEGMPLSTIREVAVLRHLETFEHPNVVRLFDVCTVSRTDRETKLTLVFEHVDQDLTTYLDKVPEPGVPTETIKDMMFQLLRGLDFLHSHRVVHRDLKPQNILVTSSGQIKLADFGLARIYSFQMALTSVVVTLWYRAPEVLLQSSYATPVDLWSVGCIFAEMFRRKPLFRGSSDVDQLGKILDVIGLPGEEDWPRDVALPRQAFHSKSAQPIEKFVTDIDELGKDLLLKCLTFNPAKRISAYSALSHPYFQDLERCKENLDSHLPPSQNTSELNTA

## Protein Reprimo (RPRM), HA-tagged full-length (from UniProt Q9NS64 1-109)
[1]
  binding: binds

## RPRM-S98A mutant, HA-tagged (from UniProt Q9NS64 1-109)
[1]
  binding: binds

## cyclin-dependent kinase 6 (CDK6) (from UniProt Q00534 1-326)
[2]
  binding: binds

B1: RPRM deletion mutant Δ(79-109), HA-tagged (domain or fragment, UniProt Q9NS64 1-78)
chain: MNPALGNQTDVAGLFLANSSEALERAVRCCTQASVVTDDGFAEGGPDERSLYIMRVVQIAVMCVLSLTVVFGIFFLGC
[3]
  binding: binds
